# Source: PubChem BioAssay AID2685 (National Center for Advancing Translational Sciences (NCATS), 2010)
# The other results are listed elsewhere or left out. These are further read-outs of the screen, such as a control signal, another cell line or another target. No call is given for them. Most of these compounds were active or inconclusive in the main read-out, so they are no random draw. Potencies come from curve fits of mixed quality, noted in brackets. Where a SMILES comes first, the peptide text is derived from it. [ ]: non-standard residue; d: D form. pGlu = O=C1CC[CH](C(=O)O)N1
# Test: qHTS Assay for Lipid Storage Modulators in Drosophila S3 Cells;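 for cell number change: cells counted by Cell Tracker Red CMTPX staining in the red channel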
# Details: BODIPY lipid droplet fluorescence, 18-24 h; for cell number change: measured here: cell count max response, cells fed with added oleic acid
# Summary of the method: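 Drosophila S3 cells loaded with oleic acid (400 uM, as added) and compounds at several concentrations; lipid droplets imaged by 488-nm laser-scanning cytometry, 500–530 nm intensity and object ratio to cell channel. Percent activity normalized to 20 uM Triacsin C.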
# [1] = measured here: cell number channel AC50, cells fed with added oleic acid
# [2] = measured here: lipid fluorescence (Fed channel) AC50, cells fed with added oleic acid
Compound,cell number change [%],AC50 [1],AC50 [2]
COc1cc2c(cc1NC(=S)NC(=O)/C=C/c1ccc(OC)c(OC)c1)oc1ccccc12,11.6,–,–
O=C(O)/C=C/C(=O)Nc1ccc(-n2ccc(C(F)(F)F)n2)cc1,27.8,–,–
O=C(COC(=O)C1CCN(c2ccc(C(F)(F)F)cn2)CC1)c1ccccc1Cl,-28.1,–,–
CN(CC(=O)Nn1cnnc1)S(=O)(=O)c1cc(Cl)ccc1Cl,-37.1,"0.116 µM [falling, full curve, poor fit]","0.411 µM [falling, partial curve]"
CN(C(=O)COC(=O)c1ccc(NS(=O)(=O)c2cccs2)cc1)C1CCCCC1,2.71,–,"1.16 µM [falling, full curve, poor fit]"
CCCOc1ccc2c3c(c(=O)oc2c1OCCC)CCCC3,-25,–,"2.31 µM [rising, single point]"
CCCCOc1ccc(C(=O)NCC(=O)NC(C)CCc2ccccc2)cc1 (configuration not stated),14.1,–,–
CCN(CC)c1nc(N)c([N+](=O)[O-])c(NCCO)n1,25.4,–,"6.51 µM [rising, single point]"
NNC(=O)c1csc(-c2cccc(C(F)(F)F)c2)n1,39.2,"16.4 µM [rising, single point]","29.1 µM [rising, single point]"
CCOc1ccccc1-n1c(SCC(=O)N2CCCc3ccccc32)nnc1-c1cccnc1,-11.9,–,"0.116 µM [rising, full curve, poor fit]"
Cc1cccc(Nc2nc(OCC#N)nc(N(C)C)n2)c1,2.36,–,–
Cc1ccc(NC(=O)c2ccc(=O)n(CC(=O)Nc3c(C)cc(C)cc3C)n2)cc1,186,"20.6 µM [rising, single point]","29.1 µM [rising, partial curve, poor fit]"
COc1cc(CN2CCC(n3nccc3NC(=O)C3CC3)CC2)cc(OC)c1,-18.3,–,"0.58 µM [rising, single point]"
O=C1/C(=C/c2cccc([N+](=O)[O-])c2)Oc2cc(O)ccc21,-7.21,–,"29.1 µM [falling, single point]"
c1cc2c(cc1CN1CCOCC1)OCO2,24.1,–,"9.2 µM [rising, partial curve]"
COc1ccc(NC(=O)CC(Cc2ccccc2)C(=O)O)cc1 (configuration not stated),0.132,–,"7.31 µM [falling, partial curve]"
CCCCn1c(Cc2ccccc2)n[nH]c1=S,88.1,"0.517 µM [rising, full curve]","0.517 µM [rising, full curve]"
COc1ccc(CCN2C(=NC(C)=O)SC3CS(=O)(=O)CC32)cc1OC (configuration not stated),36.8,"2.06 µM [rising, partial curve]",–
Oc1ccc(N2CCN(Cc3ccc(OCCCN4CCCCC4)cc3)CC2)cc1,-10.7,–,"6.51 µM [rising, partial curve, poor fit]"
COc1ccc(/C=N\NC(=O)c2ccccc2)cc1COc1ccc(F)cc1,-35.1,"2.06 µM [falling, full curve, poor fit]",–

Compound,cell number change [%],AC50 [1],AC50 [2]
COc1ccc(OCCNS(=O)(=O)c2ccccc2)cc1,19.9,–,–
CCCCCCCOc1ccc(OC(=O)c2cccnc2)cc1,-15.3,"0.103 µM [falling, full curve, poor fit]",–
O=C(O)c1cccc(NC(=O)c2cn(-c3ccccc3)nc2-c2ccc(F)cc2)c1,6.74,–,"0.58 µM [falling, single point]"
COc1cc(OC)cc(C(=O)NCC(=O)OCC(=O)C(C)(C)C)c1,-20,–,"0.291 µM [falling, full curve, poor fit]"
CN(CC(=O)Nc1ccccc1C(F)(F)F)C(=O)c1cc(Cl)nc2ccccc12,4.64,–,–
COc1ccc(NC(=O)CN(C)C(=O)c2ccc(S(=O)(=O)Nc3ccccc3C)cc2)cc1,-75,"14.6 µM [falling, partial curve, poor fit]",–
CCc1ccc(S(=O)(=O)NCCc2cn3ccsc3n2)s1,-0.68,–,"2.91 µM [rising, full curve]"
COc1cc(/C=C2\COC/C(=C\c3ccc(O)c(OC)c3)C2=O)ccc1O,-56.3,"20.6 µM [falling, partial curve]","20.6 µM [falling, partial curve]"
Cc1cccc(OCc2nnc(NC(=O)c3cccs3)s2)c1,–,–,"0.651 µM [falling, single point]"
Cc1cc(=O)[nH]c(SCc2nc3ccc([N+](=O)[O-])cc3[nH]2)n1,12.8,"0.461 µM [falling, single point]","0.651 µM [falling, single point]"
CC(OC(=O)c1ccc(-c2ccc(O)cc2)cc1)C(=O)NC1CCCCC1C (configuration not stated),-4.87,–,"29.1 µM [falling, partial curve, poor fit]"
COCCCNC(=S)NC(=O)c1ccccc1,-55,"29.1 µM [falling, single point]",–
CCOC(=O)CSc1nc(N)cc(=O)[nH]1,5.8,–,"0.00517 µM [falling, full curve, poor fit]"
Cc1cc(C)c2[nH]c(O)c(N=NC(=S)NCC3CCCO3)c2c1 (configuration not stated),25.7,–,"6.51 µM [rising, single point]"
CCOc1ccc2nc(SCC(=O)Nc3ccc(S(=O)(=O)N4CCCC4)cc3)c(C)cc2c1,–,–,"4.61 µM [falling, single point]"
O=C(N/N=C/C=C/c1cccc([N+](=O)[O-])c1)c1ccncc1,9.54,–,"0.0146 µM [falling, full curve]"
O=C1CCc2ccc(OCCCCN3CCN(c4cccc(Cl)c4Cl)CC3)cc2N1,-76.5,"20.6 µM [falling, single point]","18.4 µM [falling, single point]"
COc1ccc(N2CCN(C(=O)c3ccc(CS(=O)(=O)c4ccc(OC)cc4)o3)CC2)cc1,–,"2.06 µM [rising, partial curve]",–
CC(C)CC(NC(=O)C(CO)NC(=O)C1CCC(=O)N1)C(N)=O (stereo not drawn) ([pGlu]-Ser-Leu-NH2; configuration not given here),-39.2,"0.461 µM [falling, full curve]",–
CCOC(=O)/C=C1\SCC(=O)N1Cc1ccc(Br)cc1,-26.8,–,"7.31 µM [falling, partial curve]"

Compound,cell number change [%],AC50 [1],AC50 [2]
CC(C)(C)c1ccc(/C=N/Nc2nncn2N)cc1,-13.3,–,–
CCC(CC)c1nnc(NC(=O)c2ccc(S(=O)(=O)N3CCc4ccccc4C3)cc2)s1,131,"20.6 µM [rising, partial curve, poor fit]","0.366 µM [rising, partial curve, poor fit]"
CCCCn1c(SCC(=O)c2ccccc2)nc2ccsc2c1=O,35.1,"6.51 µM [rising, partial curve]","16.4 µM [rising, single point]"
Cc1ccc(C(=O)NC(C)c2ccc(-n3ccnc3)cc2)cc1 (configuration not stated),15.8,–,"29.1 µM [rising, single point]"
COc1cccc(CNc2ccc([N+](=O)[O-])cc2Cl)c1O,-14,"6.51 µM [falling, single point]","6.51 µM [falling, single point]"
CCCCN(C(=O)c1cccc(N2C(=O)c3ccccc3C2=O)c1)c1c(N)n(CC(C)C)c(=O)[nH]c1=O,9.35,–,"6.51 µM [rising, single point]"
Cc1ccc(Oc2ccccc2/C=C2\SC(=O)N(C)C2=O)cc1,-9.82,–,"1.46 µM [falling, full curve, poor fit]"
CCCCOC(=O)Nc1ccc(C(C)C)cc1,-34.3,"14.6 µM [falling, partial curve, poor fit]","16.4 µM [falling, partial curve, poor fit]"
COc1ccc(C)cc1N1CC(C(=O)OCc2nc(N)nc(Nc3ccccc3C)n2)CC1=O (configuration not stated),18.1,–,–
Cc1ccc(N(C)S(=O)(=O)c2cc3c(cc2C)NC(=O)CO3)cc1,3.46,–,"18.4 µM [falling, single point]"
Cc1c(N=Cc2ccc(O)c(Br)c2)cccc1[N+](=O)[O-],23.1,–,"3.66 µM [rising, full curve, poor fit]"
COc1ccc(S(=O)(=O)N2CCOC23CCN(S(C)(=O)=O)CC3)cc1,24.5,–,"18.4 µM [rising, single point]"
O=C(NCc1n[nH]c(=S)n1-c1ccc([N+](=O)[O-])cc1)c1ccc(S(=O)(=O)N2CCOCC2)cc1,-9.06,"7.31 µM [falling, partial curve, poor fit]","0.103 µM [falling, full curve, poor fit]"
O=C1CC(c2cccc(Cl)c2)CC(O)=C1C=Nc1ccccc1 (configuration not stated),30.6,"29.1 µM [rising, single point]","4.11 µM [falling, partial curve, poor fit]"
Cc1ccc(-c2c(C#N)c(N)n(-c3ccc(C)cc3)c(=O)c2C#N)cc1,8.48,–,"16.4 µM [falling, single point]"
O=C(COc1ccccc1)NNC(=O)c1ccc(Cl)cc1,5.64,–,"16.4 µM [rising, single point]"
OC(CN1CCN(Cc2ccccc2)CC1)Cn1c2ccccc2c2ccccc21 (configuration not stated),-47.3,–,"32.6 µM [falling, single point]"
CNCc1ccccc1Sc1ccc(O)c(O)c1,-8.68,–,"29.1 µM [falling, single point]"

# Entries of single compounds as entered above. Values in the order: cell number change [%]	AC50 [1]	AC50 [2]
# Oc1ccc(N2CCN(Cc3ccc(OCCCN4CCCCC4)cc3)CC2)cc1 is listed as -10.7	–	6.51 µM [rising, partial curve, poor fit]
# CC(C)CC(NC(=O)C(CO)NC(=O)C1CCC(=O)N1)C(N)=O (stereo not drawn) ([pGlu]-Ser-Leu-NH2; configuration not given here) is listed as -39.2	0.461 µM [falling, full curve]	–
# CCCCCCCOc1ccc(OC(=O)c2cccnc2)cc1 is listed as -15.3	0.103 µM [falling, full curve, poor fit]	–
# COc1ccc(/C=N\NC(=O)c2ccccc2)cc1COc1ccc(F)cc1 is listed as -35.1	2.06 µM [falling, full curve, poor fit]	–
